Test results from US20110135755A1, “Combination therapies for treating neoplastic disease” (priority 2009, published 2011).

Tests used:
Format in all cases: in vivo
Details in all cases: single treatment, compared to control
[1] = Element concentrations in liver samples of treated rats
[2] = Element concentrations in kidney samples of treated rats
Source text: Liver and kidney samples were subsequently examined to see if CV 247 protected the rats from the accumulation of platinum and platinum free radicals, and what kind of metal ion concentration changes occur after treatment.

[3] = Element concentrations in plasma of treated rats

N.N.[Cl][Pt][Cl] [Cisplatin, cis-diamminedichloroplatinum]
change of element concentrations in liver [1]: increased the Fe concentration in liver significantly; also recorded: Pt appeared in the organ | change of element concentrations in the kidney [2]: decreased the Cu, Mg, Mn, Mo, P and Zn concentrations in the kidney significantly; also recorded: increased the Pb concentration; also recorded: concentration of Pt and Sb become measurable | change of element concentrations in plasma [3]: decreased K concentration in plasma significantly; also recorded: increased B, Co, Cr, Fe, Mg, Mn, Ni and Sb concentrations; also recorded: presence of Pb in plasma could also be seen

Entries after “also recorded” stand apart in the source; their conditions may differ.
